According to patent US5051400A, “Method of treating nausea and emesis related to motion sickness with vasopressin antagonists” (SmithKline Beecham Corporation, priority 1990, dated 1991):
“And” between values parts separate entries of the source, which are not always exact repeats. Equal values may be shown once. “Also recorded” adds a separate entry of the source. At least one peptide structure holds a part that was inferred or is arguable (an end, a ring closure or a residue). Numbered stars: 1 amine (or outer) side, 2 acyl side, 3 side chain; on linkers, the order of the positions; unused ones are H or OH. Bridge positions count the residues as written; N and C are the ends. Peptide text beside a SMILES is read from it. X1 = O=C(CC1(S[*:2])CCCCC1)[*:1]

System: squirrel monkeys
Assay: Motion sickness stressor test (vertical oscillation plus rotation) in squirrel monkeys
Assay type: in vivo, squirrel monkey

COc1ccc(C[C@@H]2NC(=O)CC3(CCCCC3)SSC[C@@H](C(=O)N3CCC[C@H]3C(=O)N[C@@H](CCCNC(=N)N)C(=O)NCC(N)=O)NC(=O)[C@H](CC(N)=O)NC(=O)[C@H](CCC(N)=O)NC(=O)[C@H](Cc3ccccc3)NC2=O)cc1 [SKF 100273, [1-β-Mercapto-β-β-Cyclopentamethylenepropionic acid, 2-(0-methyl)tyrosine-8-arginine] vasopressin] (Y(Me)FQNCPRG-NH2; linker N-5 via X1)
Latency to Emesis, On-Drug (individual monkey, 200-240 mcg i.v. 30 minutes prior to stressor test, testing terminated after 60 minutes): > 60 min
Motion Sickness Rating, On-Drug (individual monkey, 200-240 mcg i.v. (tail vein) 30 minutes prior to stressor test, maximum symptom score 31): 3 points and 2 points and 4 points and 5 points
Motion Sickness Rating, On-Drug, Mean (mean of 4 monkeys, 200-240 mcg i.v. 30 minutes prior to stressor test, maximum symptom score 31): 3.5 points and ≤ 3.5±0.6 points
Latency to Emesis, On-Drug, Mean (mean of 4 monkeys, 200-240 mcg i.v. 30 minutes prior to stressor test, testing terminated after 60 minutes): 60 min and > 60 min
Emesis and motion sickness symptomatology (result in words) (squirrel monkeys, 200-240 mcg i.v., 60 minute test): no emesis was observed; also recorded: dramatically prevents emesis and motion sickness symptomatology
